Measurements as given in US12048691B2 (SPERO THERAPEUTICS, INC., priority 2020, dated 2024).
For part of these data: At least one structure is not confirmed: it was looked up by name or label, or the drawing left a doubt. Some of these results come from one statement about several compounds together.

How the values were obtained:
[1] = tested on: Enterobacterales (ENT); experiment: Broth microdilution against US UTI pathogens 2019-2020; assay type: cell-based; details: EC, and KPN
Method: This study assessed the in vitro activity of tebipenem and comparator agents against Enterobacterales (ENT) responsible for UTIs in the US during 2019-2020. A total of 3,576 ENT recovered from urine samples during the 2019-2020 STEWARD Surveillance Program were included in the study. Isolates were collected from medical centers in all 9 US Census Regions and were centrally tested for susceptibility by reference broth microdilution method. MIC interpretation was performed based on CLSI criteria.

[2] = tested on: AmpC production in Enterobacterales; experiment: AmpC induction (nitrocefin hydrolysis after drug exposure); assay type: cell-based; details: tebipenem/imipenem except for C. koseri and S. marcescens
Method: AmpC induction was determined as follows. Baseline MIC values were determined by broth microdilution method, as described above, for 9 Gram-negative isolates with basal expression of ampC. These isolates were cultured overnight on blood agar plates. A standardized inoculum made from fresh overnight plate cultures was added to flasks containing 50 mL of Luria-Bertani (LB) broth and incubated by shaking at 37° C. to OD600 of 0.3. […] These cultures were incubated under shaking conditions. A 40 mL aliquot of bacterial cultures was sampled at time 0 and 2 hours after drug exposures. Each sample aliquot was harvested by centrifugation and the supernatant was discarded.
Protein crude extract preparations were made in 200 μL of BugBusterR (Novagen, Darmstadt, Germany) per manufacturer instructions and cell debris was removed by centrifugation. Protein concentrations were determined in each crude extract by standard methodologies.
AmpC induction was measured by the intensity of β-lactamase hydrolytic activity against 0.1 mM nitrocefin in 0.1 M phosphate buffer at pH 7.0 using spectrophotometry at 482 nm (Δ absorbance/minute/mg of protein). The drug exposure conditions that caused a >4-fold increase in hydrolysis activity compared to the baseline were subjected to postinduction experiments. […]

| SMILES | susceptibility [1] | effect of exposure on production of AmpC [2] |
| --- | --- | --- |
| CO/N=C(\C(=O)N[C@@H]1C(=O)N2C(C(=O)O)=C(COC(N)=O)CS[C@H]12)c1ccco1 [Cefuroxime] | 63.1% to 87.1 | – |
| C[C@@H](O)[C@H]1C(=O)N2C(C(=O)O)=C(SCCN=CN)C[C@H]12 [Imipenem] | – | increased production of AmpC |
| C[C@H]1COc2c(N3CCN(C)CC3)c(F)cc3c(=O)c(C(=O)O)cn1c23 [Levofloxacin, levofloxacin] | 63.1% to 87.1 | – |
